Part of at least one peptide drawing is inferred or uncertain, most often the ends. Some compounds share one wording; it may come from a single statement. Ends that are not written are not given here.
Tested on: human adult dermal fibroblasts
Assay: two-dimensional outmigration of fibroblasts from contracted collagen gels over protein coated surfaces
Assay type: cell-based
Settings: for effect of synthetic peptide added to the outmigration assay on migration of fibroblasts onto dried FN: FN coated plates; for effect of synthetic peptide on migration over collagen: collagen coated assay plates
Method: Primary cultures of human adult dermal fibroblasts, acquired from Marcia Simon (Living Skin Bank, SUNY at Stony Brook), the ATCC (Bethesda, Md.), or the NIA (Bethesda, Md.), are cultured in Dulbecco's modified Eagle's medium (DMEM, Life Technologies) containing 42 mM sodium bicarbonate and supplemented with 100 U/ml penicillin, 100 μg/ml streptomycin, and 10% fetal bovine serum (FBS, HyClone, Logan, Utah), at 37° C. and 5% CO2 /95% air in a humidified atmosphere. The cells are used between passages 4 and 12.
Fibroblast cultures at 80% confluence are harvested by treatment with 0.05% trypsin/0.01% EDTA. Trypsin is inactivated by addition of soy bean trypsin inhibitor in PBS containing 0.2% BSA. The cells are washed twice with DMEM+2% BSA and resuspended at a concentration of 1×10^6 cells/ml. The fibroblasts are mixed with neutralized collagen (Vitrogen 100, Celtrix Labs., Santa Clara, Calif.), 2% BSA, 30 ng/ml PDGF-BB, 30 μg/ml fibronectin, and concentrated DMEM so that the final concentration of DMEM and sodium bicarbonate is 1x. 600 μl of the cell mixture is added to the wells of a 24-well tissue culture plate, which has been precoated with 2% BSA. The collagen is allowed to polymerize at 37° C. The final concentration of collagen is 1.8 mg/ml and each gel contains 6×10^4 cells. After two hours incubation, the gels are gently detached from the plastic surface to allow contraction with the addition of 0.5 ml DMEM+2% BSA and 30 ng/ml PDGF-BB per well. The gels are incubated overnight at 37° C. in 100% humidity, 5% CO2 and 95% air.
Fibronectin, its fragments or recombinant domains were diluted with concentrated DMEM to the appropriate concentration. Aliquots of 450 μl protein solution are added to the wells of 24-well tissue culture plates (Becton-Dickinson, Lincoln Park, N.J.). After a 2 hour incubation at 37° C. in 5% CO2, plates were dried overnight at room temperature under sterile conditions. […]
For preparation of "gold standard" transmigration assays containing a dermal organotypic construct surrounded by a fibrin clot as previously described (Greiling and Clark 1997), dried fibrin fibril-coated dishes are washed once with PBS and fibroblast-contracted collagen gels are placed on the surface. […] All migration assays are quantified after a 24 hour incubation at 37° C. in 100% humidity, 5% CO2 and 95% air.
The number of migrated cells was quantified under a Nikon inverted phase microscope by visually counting identifiable cell nuclei located outside of the contracted collagen gel in the fibrin gel (transmigration assay) or on the matrix (outmigration assay). Within a given experiment each condition was run in triplicate and means ±SD calculated. […] Statistical differences among conditions can be determined by ANOVA.

Sequence	effect of synthetic peptide added to the outmigration assay on migration of fibroblasts onto dried FN	effect of synthetic peptide on migration over collagen
SPPRRARVT [peptide IV]	inhibited the migration of fibroblasts onto dried FN in a dose-dependent manner	no effect
WQPPRARI [peptide V]	inhibited the migration of fibroblasts onto dried FN in a dose-dependent manner	no effect
